From PubChem BioAssay AID226 (DTP/NCI, 2004)
The list shows only some results of the screen, not a fair sample: it is rich in T/C values a quarter to a half above the control, in often repeated tests (any T/C) and in doses without a T/C. Further doses and runs are listed elsewhere. T/C: endpoint of the treated group in % of that of the vehicle group. Some doses have a count of surviving animals in place of a T/C: the source files T/C as zero there, which appears to mark a toxic dose or a test without result, not a measured value. Some survivor counts are full or nearly so, which does not show that the dose was tolerated: survival well below the control is almost never listed, so the zero probably covers shortened survival too. Survivors were counted at the toxicity check, usually on the fifth day, unless a day is given; later deaths do not show. Schedule codes are those of the source, taken here to give the interval after Q, in days (D) or hours (H), and the number of doses after X. Counts like (3×) say how often a value occurs here. Some entries hold several experiments; the results are listed from low to high. Some schedule codes hold Z or #, which are not explained here. For survival time, this PubChem deposit counts one and a half times the control or more as active, and values a quarter to a half above the control carry no call in these data; other NCI protocols may use other cut-offs. Some T/C values are followed by the survivors on the day toxicity was checked, most often the fifth; where none is given, no animal had died by that day.

Tested on: B6C3F1 mice, intracerebral ependymoblastoma, median survival T/C
Experiment: NCI In Vivo Anticancer Drug Screen. Data for tumor model Ependymoblastoma (intracerebral) in B6C3F1 mice
Details: T/C endpoint: median survival time, higher T/C = longer survival
Procedure: The antitumor activity of compounds was measured in mice bearing transplantable tumors. Survival or tumor size were measured and the results are expressed as the measurement made in the treated group (T) divided by the measurement made in the vehicle treated control group (C). The tumor model used in this assay is Ependymoblastoma (intracerebral) in B6C3F1 mice

[1] = dose: 32.0 mg/kg/injection, schedule: Q01DX005 (ip), vehicle: saline with Tween-80
[2] = dose: 64.0 mg/kg/injection, schedule: Q01DX005 (ip), vehicle: saline with Tween-80
[3] = dose: 256.0 mg/kg/injection, schedule: Q01DX005 (ip), vehicle: saline with Tween-80
[4] = dose: 2048.0 mg/kg/injection, schedule: Q01DX001 (ip), vehicle: saline

For `C[C@@H](CN1CC(=O)NC(=O)C1)N1CC(=O)NC(=O)C1`, the T/C [1] was 126 % of control, the T/C [2] was 129 % of control and the T/C (dose: 64.0 mg/kg/injection, schedule: Q01DX005 (ip), vehicle: saline) was 134 % of control. For the same compound, the survivor count (dose: 64.0 mg/kg/injection, schedule: Q01DX005 (oral), vehicle: saline) was 10 of 10, the T/C (dose: 64.0 mg/kg/injection, schedule: Q## X006 (ip), vehicle: saline) was 135 % of control and the T/C (dose: 128.0 mg/kg/injection, schedule: Q01DX005 (ip), vehicle: saline) was 125 % of control. For the same compound, the survivor count (dose: 128.0 mg/kg/injection, schedule: Q01DX005 (oral), vehicle: saline) was 10 of 10, the T/C (dose: 128.0 mg/kg/injection, schedule: Q## X006 (ip), vehicle: saline) was 142 % of control and the survivor count [3] was 10 of 10. For the same compound, the T/C (dose: 256.0 mg/kg/injection, schedule: Q01DX005 (ip), vehicle: water) was 127 % of control [8 of 10 alive], the survivor count (dose: 256.0 mg/kg/injection, schedule: Q01DX005 (oral), vehicle: saline) was 5 of 10 and 10 of 10 and the T/C (dose: 256.0 mg/kg/injection, schedule: Q## X004 (ip), vehicle: saline) was 135 % of control. For the same compound, the T/C (dose: 256.0 mg/kg/injection, schedule: Q## X006 (ip), vehicle: saline) was 146 % of control, the T/C (dose: 512.0 mg/kg/injection, schedule: Q01DX001 (ip), vehicle: saline) was 125 % of control and the T/C (dose: 512.0 mg/kg/injection, schedule: Q01DX001 (oral), vehicle: saline) was 126 % of control [9 of 10 alive]. The survivor count (dose: 512.0 mg/kg/injection, schedule: Q01DX005 (ip), vehicle: saline) was 9 of 10 and 10 of 10, the survivor count (dose: 512.0 mg/kg/injection, schedule: Q01DX005 (oral), vehicle: saline) was 10 of 10 (2×) and the T/C (dose: 512.0 mg/kg/injection, schedule: Q## X004 (ip), vehicle: saline) was 142 % of control. For the same compound, the survivor count (dose: 512.0 mg/kg/injection, schedule: Q## X006 (ip), vehicle: saline) was 10 of 10, the T/C (dose: 1024.0 mg/kg/injection, schedule: Q01DX001 (ip), vehicle: saline) was 128 % of control [9 of 10 alive] and the T/C (dose: 1024.0 mg/kg/injection, schedule: Q01DX001 (oral), vehicle: saline) was 126 and 128 % of control [9 of 10 alive]. For the same compound, the survivor count (dose: 1024.0 mg/kg/injection, schedule: Q01DX005 (ip), vehicle: Klucel (hydroxypropylcellulose) (HPC)) was 10 of 10, the survivor count (dose: 1024.0 mg/kg/injection, schedule: Q01DX005 (ip), vehicle: saline with Tween-80) was 9 of 10 and the survivor count (dose: 1024.0 mg/kg/injection, schedule: Q01DX005 (oral), vehicle: saline) was 9 of 10. For the same compound, the survivor count (dose: 1024.0 mg/kg/injection, schedule: Q## X004 (ip), vehicle: saline) was 10 of 10, the T/C [4] was 130 and 136 % of control and the survivor count [4] was 5 of 10. For the same compound, the survivor count (dose: 2048.0 mg/kg/injection, schedule: Q01DX001 (oral), vehicle: saline) was 8 of 10, the survivor count (dose: 2048.0 mg/kg/injection, schedule: Q01DX005 (oral), vehicle: saline) was 10 of 10 and the survivor count (dose: 2048.0 mg/kg/injection, schedule: Q## X004 (ip), vehicle: saline) was 7 of 10.
`CC[C@H]1CN2CCc3cc(OC)c(OC)cc3[C@@H]2C[C@@H]1C[C@H]1NCCc2cc(OC)c(OC)cc21` was tested, and the T/C (dose: 4.0 mg/kg/injection, schedule: Q01DX001 (ip), vehicle: Klucel (hydroxypropylcellulose) (HPC)) was 100, 104 [survivors not given], 107 [survivors not given], 110 % of control [survivors not given], the T/C (dose: 8.0 mg/kg/injection, schedule: Q01DX001 (ip), vehicle: Klucel (hydroxypropylcellulose) (HPC)) was 95 [survivors not given], 98, 99 [survivors not given], 112 % of control [survivors not given] and the T/C (dose: 16.0 mg/kg/injection, schedule: Q01DX001 (ip), vehicle: Klucel (hydroxypropylcellulose) (HPC)) was 92, 92 [survivors not given], 98 [survivors not given], 99 % of control [survivors not given]. The survivor count (dose: 16.0 mg/kg/injection, schedule: Q01DX005 (ip), vehicle: Klucel (hydroxypropylcellulose) (HPC)) was 1 of 10 and 9 of 10 and the T/C (dose: 32.0 mg/kg/injection, schedule: Q01DX001 (ip), vehicle: Klucel (hydroxypropylcellulose) (HPC)) was 89, 105 [survivors not given] (2×), 107 % of control [survivors not given].
With `O=C1C(NCCO)=C(N2CC2)C(=O)C(NCCO)=C1N1CC1` the T/C (dose: 0.5 mg/kg/injection, schedule: Q01DX005 (ip), vehicle: saline) was 133 % of control, the T/C (dose: 1.0 mg/kg/injection, schedule: Q01DX005 (ip), vehicle: saline) was 142 % of control and the survivor count (dose: 2.0 mg/kg/injection, schedule: Q01DX005 (ip), vehicle: saline) was 10 of 10. For the same compound, the survivor count (dose: 3.0 mg/kg/injection, schedule: Q01DX005 (ip), vehicle: saline) was 10 of 10.
In the case of `CN=S(=O)(OCCCCCOS(=O)(=NC)c1ccccc1)c1ccccc1` (centres undefined), the survivor count (dose: 200.0 mg/kg/injection, schedule: Q01DX005 (ip), vehicle: saline with Tween-80) is reported as 3 of 10.
With `COC(=O)C(Cc1ccc(N(CCCl)CCCl)cc1)N=NNc1nc[nH]c1C(N)=O` (centres undefined) the T/C [1] was 131 % of control, the T/C (dose: 64.0 mg/kg/injection, schedule: Q01DX005 (ip), vehicle: saline with Tween-80, evaluated on day 45) was 145 % of control and the T/C (dose: 64.0 mg/kg/injection, schedule: Q01DX005 (ip), vehicle: saline with Tween-80, evaluated on day 60) was 131 % of control. The survivor count (dose: 128.0 mg/kg/injection, schedule: Q01DX005 (ip), vehicle: saline with Tween-80) was 9 of 10.
For `Nc1nc(SCc2ccccc2F)c2ncn(C3OC(CO)C(O)C3O)c2n1` (centres undefined), the T/C (dose: 3.12 mg/kg/injection, schedule: Q01DX005 (ip), vehicle: saline with Tween-80) was 125 % of control.
In the case of `CCOC(OCC)C(=O)OCC(=O)[C@]1(O)Cc2c(O)c3c(c(O)c2[C@@H](OC2CC(N)C(O)C(C)O2)C1)C(=O)c1c(OC)cccc1C3=O` (some centres undefined), the survivor count (dose: 4.0 mg/kg/injection, schedule: Q01DX005 (ip), vehicle: water) is reported as 10 of 10, the survivor count (dose: 8.0 mg/kg/injection, schedule: Q01DX005 (ip), vehicle: water) is reported as 5 of 10 and 10 of 10 and the survivor count (dose: 16.0 mg/kg/injection, schedule: Q01DX005 (ip), vehicle: water) is reported as 3 of 10.
With `CCCCCCCCN(C)/N=N/c1nc[nH]c1C(N)=O` the T/C [1] was 139 % of control, the T/C [2] was 141 % of control and the T/C [3] was 142 % of control [9 of 10 alive].
`CN(C)N=Nc1ccc([N+](=O)[O-])cc1C(N)=O` was tested, and the T/C [3] was 138 % of control and the survivor count (dose: 512.0 mg/kg/injection, schedule: Q01DX005 (ip), vehicle: saline with Tween-80) was 0 of 10.
In the case of `O=C(NC1=C(N2CC2)C(=O)C(NC(=O)OCCO)=C(N2CC2)C1=O)OCCO`, the survivor count (dose: 0.18 mg/kg/injection, schedule: Q01DX005 (ip), vehicle: saline) is reported as 6 of 10, the survivor count (dose: 0.39 mg/kg/injection, schedule: Q01DX005 (ip), vehicle: saline) is reported as 5 of 8 and the survivor count (dose: 0.75 mg/kg/injection, schedule: Q01DX005 (ip), vehicle: saline) is reported as 6 of 10.
With `C1CCC2C[N-]CCC2C1.C1CCC2C[N-]CCC2C1.C1CCC2C[N-]CCC2C1.C1CCC2C[N-]CCC2C1.[Cl][Rh][Cl]` (centres undefined) the survivor count (dose: 8.0 mg/kg/injection, schedule: Q01DX005 (ip), vehicle: dextrose) was 6 of 10, the survivor count (dose: 16.0 mg/kg/injection, schedule: Q01DX005 (ip), vehicle: dextrose) was 0 of 10 and the survivor count (dose: 32.0 mg/kg/injection, schedule: Q01DX005 (ip), vehicle: dextrose) was 0 of 10.
